The list shows a part of the results.

In this assay the target is T1, OsSMF1 (Oryza sativa, UniProt Q6ZLB0 1-436).
T1 sequence: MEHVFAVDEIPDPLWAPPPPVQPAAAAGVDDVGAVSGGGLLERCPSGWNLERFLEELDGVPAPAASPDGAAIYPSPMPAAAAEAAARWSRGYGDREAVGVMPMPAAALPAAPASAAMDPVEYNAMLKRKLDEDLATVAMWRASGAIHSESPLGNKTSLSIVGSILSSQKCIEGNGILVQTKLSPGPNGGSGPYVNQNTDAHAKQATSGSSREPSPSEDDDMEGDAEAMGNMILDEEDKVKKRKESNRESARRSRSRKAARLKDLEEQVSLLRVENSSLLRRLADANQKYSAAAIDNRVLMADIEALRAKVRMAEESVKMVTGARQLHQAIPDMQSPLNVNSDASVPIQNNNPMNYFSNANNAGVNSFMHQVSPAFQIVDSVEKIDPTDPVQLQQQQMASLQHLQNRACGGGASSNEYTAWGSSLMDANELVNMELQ
Briefly: protein-binding microarray (RPBM); PBS, 2% BSA, 51.3 ng/ul salmon testes DNA, 50 uM zinc acetate, 200 nM TF, 25 C, 1 h; high values mean tight binding. The settings on record: protein: recombinant; tags: N-terminal polyhistidine and DsRed monomer fusion (pET32a); chain copies: 2; label: CyDye5-dUTP incorporated in the synthesized complementary strand; 3' TTTTT single-stranded linker to array surface; dsDNA, one strand shown. An outline of the steps:
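Transcription factors were made in E. coli BL21-CodonPlus as N-terminal fusions to a polyhistidine tag and DsRed, then purified on Ni–NTA. After primer extension with Cy5-dUTP and blocking with 2% BSA, a custom Agilent array was exposed for 1 h at 25 °C to 200 nM protein in PBS, 2% BSA, salmon testes DNA and 50 µM zinc acetate. Washed arrays were scanned on an Axon 4000B, and the binding signal is per-feature fluorescence intensity in arbitrary units.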
Take “CGCTGGGCGATGCCACGTCGGATAGGAACAGTGCGCGGAGCGGAGTCACCTAGTGCAG”: the binding signal was 13300 fluorescence intensity (a.u.).

In the case of “TAGTTACTTAGTGCATGGGCATCCCACGTCTGTGTGCATGCGGAGTCACCTAGTGCAG”, the binding signal was 4750 fluorescence intensity (a.u.).

For “CGTTGGCGTCCACCACGGCCACCGCCACGCCGCTCGTGTTCGGAGTCACCTAGTGCAG”, the binding signal was 4420 fluorescence intensity (a.u.).

As to “GTTCGCCTCTGCCATTCTCCCCTGATGGCAGAGGATGCGACGGAGTCACCTAGTGCAG”, the binding signal is 3150 fluorescence intensity (a.u.).

For “AGCCGGTGAGCCGCTCATCGGCGGTCGTACGTCATCGCTACGGAGTCACCTAGTGCAG”, the binding signal was 6340 fluorescence intensity (a.u.).

Regarding “ATTGATATGTAGGGTCGATCGCGTGCTTTCAGTCTAGCTGCGGAGTCACCTAGTGCAG”, the binding signal is 3180 fluorescence intensity (a.u.).

As for “CCACTATAATGCCACGTCACTAAATCCCATCCAACATCAACGGAGTCACCTAGTGCAG”, the binding signal was 16400 fluorescence intensity (a.u.).

As to “ACGTTCTTGAGTGACATGTTATGTACACATATATTCCTTTCGGAGTCACCTAGTGCAG”, the binding signal is 3530 fluorescence intensity (a.u.).

With “GGCGGTGATGCTTGTCTTCGTCATCGTCCACATCTCGTTGCGGAGTCACCTAGTGCAG”, the binding signal was 9550 fluorescence intensity (a.u.).

For the sequence “AAGGAGGAGAAGCAGCAAACGCGGCCGCACCCAGCGTCCACGGAGTCACCTAGTGCAG”, the binding signal was 3850 fluorescence intensity (a.u.).

Turning to “TGGCCCATCCATCCATCTATCGGCCCAATATGACTCAGCTCGGAGTCACCTAGTGCAG”, the binding signal is 6870 fluorescence intensity (a.u.).

Turning to “ATTGTTAGCCGTGAGCCCGTGACTCAACTTATATCGAAGCCGGAGTCACCTAGTGCAG”, the binding signal was 5480 fluorescence intensity (a.u.).

Turning to “GTGGGGAGGGTAAAAGAAACGTACCAACACACATTTATAGCGGAGTCACCTAGTGCAG”, the binding signal is 26700 fluorescence intensity (a.u.).

As for “TACTGATAGCCTTGATGTCATGCATTGAAAATAATTTCTACGGAGTCACCTAGTGCAG”, the binding signal is 4330 fluorescence intensity (a.u.).

For “TTATTCTCCGAAGAGGGTTTGTTTGGATGACTCACCTGCACGGAGTCACCTAGTGCAG”, the binding signal was 12600 fluorescence intensity (a.u.).

Regarding “ACGCTACGCTGGACACCACGTGGCCACGCCAAGCTTAGCACGGAGTCACCTAGTGCAG”, the binding signal is 4820 fluorescence intensity (a.u.).

Regarding “ATCCCATCGCGCCACGCGAGCTCGATCGATCGAGGTGTGTCGGAGTCACCTAGTGCAG”, the binding signal was 3490 fluorescence intensity (a.u.).

Regarding “ATTTCGAAAATGCACAAAATGGCCAAAATGACAAAGTGGTCGGAGTCACCTAGTGCAG”, the binding signal was 3350 fluorescence intensity (a.u.).

On to “CCAAATGTCCATGGTTGATCACGTGTGAACACGGTTTGTTCGGAGTCACCTAGTGCAG”, for which the binding signal was 3160 fluorescence intensity (a.u.).

On to “ACTTGTGCTGATCCATTCCATGTCAATGGAGTTCATGGAGCGGAGTCACCTAGTGCAG”, for which the binding signal was 4090 fluorescence intensity (a.u.).

As for “ATTAACGACACACGTGTTGAAATCTTATTCTACGAGCAGCCGGAGTCACCTAGTGCAG”, the binding signal is 4680 fluorescence intensity (a.u.).

Turning to “CTCCTCTTCCCTTCCCTTCTCTCTTTTCTTTTCTCTCACACGGAGTCACCTAGTGCAG”, the binding signal is 28600 fluorescence intensity (a.u.).

For “GCCGCCGACGACGACGAGTGGTGGAGAGGAGGAGACGAAGCGGAGTCACCTAGTGCAG”, the binding signal was 37000 fluorescence intensity (a.u.).

Take “TTATAACCTGAAACGGATAGAGTATCAACTACGTCATGCACGGAGTCACCTAGTGCAG”: the binding signal is 3280 fluorescence intensity (a.u.).

With “TATATGCCACGTGAGCTAATAAGATTTTAATACTACCTTGCGGAGTCACCTAGTGCAG”, the binding signal is 7910 fluorescence intensity (a.u.).

In the case of “GCCCTCTTCGCGGCGTTCGACGCCGCCGTCGAGATCTCCTCGGAGTCACCTAGTGCAG”, the binding signal was 25200 fluorescence intensity (a.u.).

Turning to “TTCCCAAAAGGAGGCCCAATGAGAACTTGTATAGTCCTATCGGAGTCACCTAGTGCAG”, the binding signal is 19500 fluorescence intensity (a.u.).

For “CTAATTGGCAAATTAAACAAAGAAGAAGAGGAAAGGAAGGCGGAGTCACCTAGTGCAG”, the binding signal is 32300 fluorescence intensity (a.u.).

As for “ACGACTACAACTACAAGACGATCTTTCCAAAGGAAGACCGCGGAGTCACCTAGTGCAG”, the binding signal is 3300 fluorescence intensity (a.u.).

In the case of “AATTCTCCTCAATAATTAATGGTTATTAGTAAGACACAGACGGAGTCACCTAGTGCAG”, the binding signal was 30000 fluorescence intensity (a.u.).

In the case of “CCGCGCCTGATCCGTCGGTGGTGGTGGCACGTGGGGCTTGCGGAGTCACCTAGTGCAG”, the binding signal was 4570 fluorescence intensity (a.u.).

For “CACCCACGAGCACACCCGTACCAGGGGACGAGGAGGTGGACGGAGTCACCTAGTGCAG”, the binding signal is 38300 fluorescence intensity (a.u.).

Take “CACAATATTCCCTTCCACGCCACCAACTTTTCCACCCTTCCGGAGTCACCTAGTGCAG”: the binding signal is 3910 fluorescence intensity (a.u.).

For “TGATTGCAACAGGTGGGCTGGTTTTGCGTCATTTGACCAGCGGAGTCACCTAGTGCAG”, the binding signal was 51900 fluorescence intensity (a.u.).

As to “CTTGGGCATGATGGTGACGCGCTTGGCGTGGATGGCGCACCGGAGTCACCTAGTGCAG”, the binding signal was 4090 ± 122 fluorescence intensity (a.u.).

With “GCCACGCCTCTCGCGCCAAGCCACCCTCCTCCACCGGACGCGGAGTCACCTAGTGCAG”, the binding signal was 3850 fluorescence intensity (a.u.).

For the sequence “GCTCTGGATGGCTGAACCACCTCATGGTCAGAGTTGGGTCCGGAGTCACCTAGTGCAG”, the binding signal is 4340 fluorescence intensity (a.u.).

Turning to “TCCGGCTTCCGATTCTCCCTGACGCCACTCCCTTCACCACCGGAGTCACCTAGTGCAG”, the binding signal is 3530 fluorescence intensity (a.u.).

In the case of “AAGGTGTCTAATATGTAGGGGTGTCACCAGGAAGTGAACTCGGAGTCACCTAGTGCAG”, the binding signal is 3360 fluorescence intensity (a.u.).

As for “TGACCCTATTATGTCATACCGTGTATATATTCGAATACTTCGGAGTCACCTAGTGCAG”, the binding signal is 3590 fluorescence intensity (a.u.).

As to “TCGAGTTCCGGTGCTTGTTGACGTGATTTGGGTTTTGGCCCGGAGTCACCTAGTGCAG”, the binding signal is 4880 fluorescence intensity (a.u.).

Turning to “AGTCATATATAAACAGGTCGTACGTGTTGCCGTGTTCATGCGGAGTCACCTAGTGCAG”, the binding signal was 5640 fluorescence intensity (a.u.).

The record behind these values is PMC7819943, “Rice protein-binding microarrays: a tool to detect cis-acting elements near promoter regions in rice”.
